# Results reported in PubChem BioAssay AID1347075 (National Center for Advancing Translational Sciences (NCATS), 2019).
# Out of some 400,000 compounds screened, about 5,500 (1.4%) were called active. This list was built around the results that the source calls inconclusive (neither active nor inactive); the mix of calls is not that of the screen. Calls come from the whole dose curve; as a rule, active = well fitted cell-killing curve with a large enough effect; inconclusive = small, poorly fitted or top-dose-only effect, or effect the other way; inactive = flat fitted curve, though single readings scatter. Potencies of inconclusive entries are doubtful fits and often do not repeat.
# Experiment: qHTS assay for MDR1-selective chemotherapeutics: Primary screen using the parental adenocarcinoma cell KB-3-1; note: nearly all actives have a fitted effect of over 60% in size
# Details: KB-3-1 viability, CellTiter-Glo ATP luminescence, 72 h; activity change, negative = cytotoxic: at 46.1 µM (top of the series)
# Summary of the method: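 Luminescent ATP read-out (CellTiter-Glo) measures survival of drug-naive KB-3-1 cells after 72 h compound exposure at 37 °C. Titration series was screened from lowest to highest concentration, with DMSO vehicle plates as background controls.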
# % is set by controls: 0 for no effect and ±100 for the full control effect; potency is the fitted concentration of half-maximal effect.
Structure (SMILES),"activity change, negative = cytotoxic",Potency
CCOC(=O)C(CC)Sc1nnc2n1C(C)(C)Cc1ccccc1-2 (stereo not given),inactive: -15.7%,
CC(=O)N1CCN(c2ccc(NC(=O)c3cccc(OCc4ccccc4)c3)cc2)CC1,,"inconclusive: 18.4 µM [cytotoxic, single point]"
Cc1ccccc1OCC(=O)Nc1ccc(N2CCN(C(=O)c3ccco3)CC2)cc1,,"inconclusive: 20.6 µM [cytotoxic, partial curve, poor fit]"
COc1cc2ccccc2cc1C(=O)Nc1cccc(-c2nc3ccccc3o2)c1,inactive: -28.8%,
CC(=O)c1cccc(CN2CCC(C(=O)Nc3ccc(-c4cccc(C)c4)cc3)CC2)c1,,"inconclusive: 29.1 µM [cytotoxic, single point]"
FC(F)Oc1ccc(N=C2SCC3CCCCN23)cc1 (stereo not given),,"inconclusive: 29.1 µM [cytotoxic, single point]"
COc1ccc(/C=C/C(=O)NC(=S)Nc2ccc(S(=O)(=O)Nc3ccc(OC)nn3)cc2)cc1,inconclusive: 12.4%,
Cc1ccc(C)n1-c1ccc(N2CCOCC2)c(Br)c1,,"inconclusive: 32.6 µM [cytotoxic, single point]"
Clc1ccc(CNC2CCN(Cc3ccccc3)CC2)cc1,inactive: 7.33%,
C[C@H](CO)N1C[C@H](C)[C@H](CN(C)S(=O)(=O)c2cccc(F)c2)Oc2ncc(-c3cccc(C(=O)N(C)C)c3)cc2C1=O,inactive: -16.5%,
C[C@H](O)[C@@H]1C(=O)N2CCc3ccc(N4CCN(C)CC4)cc3[C@@H]2C[C@@H]1N(C)C(=O)c1cccnc1,inactive: 16.7%,
Nc1nc(N)c(-c2cccc(C(F)(F)F)c2)c(Cc2cccc(C(F)(F)F)c2)n1,,active: 7.31 µM
COC(=O)[C@@]12C[C@@H](CC(=O)NCC34CC5CC(CC(C5)C3)C4)C(=O)N(Cc3ccc4c(c3)OCO4)C1=CCC(C)(C)C2,,"inconclusive: 20.6 µM [cytotoxic, single point]"
CCOc1cccc(C(=O)Nc2ccc(N(CC)CC)cc2)c1,,"inconclusive: 23.1 µM [cytotoxic, single point]"
O=C(C[C@H]1C[C@H](C(=O)N2CCOCC2)[C@@]2(CCC3CCCC3)c3[nH]c4cc(-c5ccco5)ccc4c3CCN2C1=O)NCCc1ccccn1,,"inconclusive: 20.6 µM [cytotoxic, single point]"
Cc1cc2c(cc1[N+](=O)[O-])NC(CNC(C)C)CC2 (stereo not given),inactive: -1.6%,
CC(C)C[C@H]1CN(CCCC[C@@H]2CNC(=O)C(=O)N2CCc2ccccc2)C(=O)C(=O)N1CCC1CCCCC1,,"inconclusive: 29.1 µM [cytotoxic, single point]"
CCc1cc(C(=O)N2CCCC(C(=O)c3cccc4ccccc34)C2)n(C)n1 (stereo not given),,active: 20.6 µM
COc1ccc(C(=O)C[n+]2ccc(N(C)C)cc2)cc1,,active: 5.17 µM
COc1ccc(-c2csc(=Nc3ccccc3)n2CCO)cc1,,active: 11.6 µM
CC1CC(C)CN(C(=O)c2ccc3c(c2)OCCO3)C1 (stereo not given),,"inconclusive: 29.1 µM [cytotoxic, single point]"
COc1ccccc1N1C[C@@H]2C[C@@H](c3ccco3)N3CCC[C@@]23C1=O,,"inconclusive: 0.0073 µM [rising, full curve, poor fit]"

Structure (SMILES),"activity change, negative = cytotoxic",Potency
CN(C)Cc1c(C(=O)N/N=C/c2cccc(OCc3c(F)cccc3Cl)c2)nnn1-c1nonc1N,,"inconclusive: 29.1 µM [cytotoxic, single point]"
CCc1ccccc1NC(=O)c1cc2sc(Cl)cc2n1CC,inactive: -7.4%,
CCOC(=O)c1c(C)[nH]c(C)c1S(=O)(=O)NCC(=O)Nc1ccc(CC)cc1,inactive: -0.0971%,
CC(=O)c1ccc(OCCCC(=O)N(CCC2=CCCCC2)c2c(N)n(Cc3ccccc3)c(=O)[nH]c2=O)cc1,,"inconclusive: 18.4 µM [rising, partial curve, poor fit]"
CCN(CCCNC(=O)c1cn(CC)c2ccc(S(=O)(=O)N(C)C)cc2c1=O)c1cccc(C)c1,,"inconclusive: 20.6 µM [cytotoxic, single point]"
Cc1ccc(-c2ccc(CN3C(CC(C)C)C(=O)N(Cc4cn(CCC5OCCO5)nn4)CCS3(=O)=O)cc2)cc1 (stereo not given),,"inconclusive: 29.1 µM [cytotoxic, single point]"
Cc1cc(NC(=O)c2cc([N+](=O)[O-])cc([N+](=O)[O-])c2)no1,,"inconclusive: 0.0046 µM [cytotoxic, full curve, poor fit]"
CCC1CCC/C1=N\NC(=O)c1cc(C)[nH]n1 (stereo not given),inactive: 12.9%,
O=C(COc1ccc(S(=O)(=O)N2CCOCC2)cc1)NCCc1ccc(Cl)cc1,inactive: -16%,
O=C(CCNC(=O)c1ccc(Br)cc1)NC1CCCc2ccccc21 (stereo not given),,"inconclusive: 6.51 µM [cytotoxic, full curve, poor fit]"
O=C1C2C3c4ccccc4C(c4ccccc43)C2C(=O)N1c1cccnc1 (stereo not given),inactive: -3.77%,
COc1cc(S(=O)(=O)N2CCOCC2)ccc1NC(=O)c1cc2c(s1)CCC2,inactive: -0.387%,
O=C(CN(c1ccc(F)cc1)S(=O)(=O)c1ccccc1)NC1CC2CCC1C2 (stereo not given),,"inconclusive: 29.1 µM [cytotoxic, single point]"
O=C(Nc1ccc(F)c(F)c1)C1CCN(S(=O)(=O)c2cccc3nonc23)CC1,,"inconclusive: 20.6 µM [cytotoxic, single point]"
CN(C)c1ccc(/C=C/c2cc3ccccc3cn2)cc1,,active: 1.46 µM
Cc1c(C=O)c2ccccn2c1C(=O)c1cccs1,,"inconclusive: 29.1 µM [rising, single point]"
CCOC(=O)NC(=O)CSc1nc(C)cc(C(F)(F)F)c1C#N,inactive: 2.2%,
O=C(NNC(=O)c1cc(OCC(F)(F)F)ccc1OCC(F)(F)F)c1ccc(Cl)c(Cl)c1,,"inconclusive: 20.6 µM [cytotoxic, single point]"
COc1ccc(S(=O)(=O)Nc2ccc(F)cc2)cc1N(C)S(=O)(=O)c1ccc(Cl)cc1,,"inconclusive: 20.6 µM [cytotoxic, single point]"
CN(C)c1ccc(/C=C/c2cc3ccccc3c[n+]2C)cc1,,active: 0.82 µM
O=C(Nc1ccc(Cl)cc1)c1cccc(OC(=S)N2CCOCC2)c1,,"inconclusive: 16.4 µM [cytotoxic, single point]"
COc1ccc(-c2nnc(SC(C)C(=O)Nc3nccs3)n2Cc2ccccc2)cc1OC (stereo not given),inactive: -14.7%,

Structure (SMILES),"activity change, negative = cytotoxic",Potency
CC(C)c1cc2c(c(O)c1O)[C@@]13CCCC(C)(C)C1CC2OC3=O (stereo not given in full),,"inconclusive: 20.6 µM [cytotoxic, single point]"
O=C(CCCN1CCC(O)(c2cccc(C(F)(F)F)c2)CC1)c1ccc(F)cc1,,"inconclusive: 0.0073 µM [rising, full curve]"
C[C@H](CO)N1C[C@H](C)[C@@H](CN(C)Cc2ccc(-c3ccccc3)cc2)Oc2c(NC(=O)c3ccncc3)cccc2C1=O,,"inconclusive: 25.9 µM [cytotoxic, single point]"
COc1ccccc1N1CCN(C(CNS(=O)(=O)c2cccs2)c2cccnc2)CC1 (stereo not given),inconclusive: -11.2%,
O=C(NCCN1C(=O)S/C(=C\c2ccccc2Cl)C1=O)C1=COCCO1,,"inconclusive: 25.9 µM [cytotoxic, partial curve, poor fit]"
COc1cccc(-c2nc(CCl)cs2)c1OC,,"inconclusive: 23.1 µM [cytotoxic, single point]"
C/C=C(\C)CN1CCC(Oc2cc(C(=O)NC3CC3)ccc2OC)CC1,,"inconclusive: 20.6 µM [rising, single point]"
CCc1ccc(CN2CCC(n3nccc3NC(=O)Cc3ccccc3)CC2)o1,,"inconclusive: 6.51 µM [cytotoxic, partial curve, poor fit]"
Cc1ccc(S(=O)(=O)Nc2ccc3nc(-c4cccn4C)[nH]c3c2)cc1,,"inconclusive: 32.6 µM [cytotoxic, single point]"
CCC1Sc2ccc(S(=O)(=O)Nc3cc(OC)cc(OC)c3)cc2NC1=O (stereo not given),inactive: -10%,
C=CC[C@H](CC(=O)N[C@H](CO)Cc1ccccc1)C(=O)N[C@@H](COC(=O)[C@H](CC=C)CC(=O)OC(C)(C)C)Cc1c[nH]c2ccccc12,,"inconclusive: 29.1 µM [cytotoxic, single point]"
CCOP(=O)(OCC)C(Nc1cccc(C(F)(F)F)c1)c1ccc(C)cc1 (stereo not given),inconclusive: -36.8%,
Clc1ccc(-c2nc3ccc(Br)cn3c2Cc2cccc(Cl)c2)cc1,,"inconclusive: 29.1 µM [cytotoxic, single point]"
O=C1NC[C@@H](CCCCN2CCN(CCc3ccccc3)C(=O)C2=O)N(CC2CCCCC2)C1=O,,"inconclusive: 23.1 µM [rising, single point]"
O=C(c1cn(-c2ccccc2)nc1-c1cccs1)N(CCO)Cc1ccccc1,inactive: 6.65%,
COC(=O)c1ccc2nc(-c3ccc(F)cc3)c(Cc3ccc(C)cc3)n2c1,,"inconclusive: 23.1 µM [cytotoxic, single point]"
O=C(Cn1cc(S(=O)(=O)N2CCN(c3ccccc3F)CC2)c2ccccc2c1=O)NCCCN1CCCCCC1,inactive: 8.74%,
Cc1nc2c(OCc3cc(Cl)cc(Cl)c3)cccn2c1N(C)C(=O)CCC1CCCC1,,"inconclusive: 32.6 µM [cytotoxic, single point]"
COc1ccc2[nH]c3c(c2c1)CCN1C(=O)C(CC(=O)NCC24CC5CC(CC(C5)C2)C4)C[C@H](C(=O)N2CCCCC2)[C@@]31C (stereo not given in full),,"inconclusive: 29.1 µM [cytotoxic, single point]"
Cc1ccc(NCN2C(=O)C(=O)c3ccccc32)nc1,,"inconclusive: 23.1 µM [cytotoxic, single point]"
COC(=O)c1cc(C(=O)c2cc(Br)ccc2O)coc1=N,,"inconclusive: 18.4 µM [rising, single point]"
